These are yes or no findings as the source states them, for the method shown. Binding seen in cells or lysates may run through a third protein. Some binding calls cover weakened binding; strength is not graded here.
Target: T1, large tumor suppressor 1 (LATS1) kinase (mouse (endogenous in mouse liver macrophages)) (UniProt Q8BYR2)
T1 sequence: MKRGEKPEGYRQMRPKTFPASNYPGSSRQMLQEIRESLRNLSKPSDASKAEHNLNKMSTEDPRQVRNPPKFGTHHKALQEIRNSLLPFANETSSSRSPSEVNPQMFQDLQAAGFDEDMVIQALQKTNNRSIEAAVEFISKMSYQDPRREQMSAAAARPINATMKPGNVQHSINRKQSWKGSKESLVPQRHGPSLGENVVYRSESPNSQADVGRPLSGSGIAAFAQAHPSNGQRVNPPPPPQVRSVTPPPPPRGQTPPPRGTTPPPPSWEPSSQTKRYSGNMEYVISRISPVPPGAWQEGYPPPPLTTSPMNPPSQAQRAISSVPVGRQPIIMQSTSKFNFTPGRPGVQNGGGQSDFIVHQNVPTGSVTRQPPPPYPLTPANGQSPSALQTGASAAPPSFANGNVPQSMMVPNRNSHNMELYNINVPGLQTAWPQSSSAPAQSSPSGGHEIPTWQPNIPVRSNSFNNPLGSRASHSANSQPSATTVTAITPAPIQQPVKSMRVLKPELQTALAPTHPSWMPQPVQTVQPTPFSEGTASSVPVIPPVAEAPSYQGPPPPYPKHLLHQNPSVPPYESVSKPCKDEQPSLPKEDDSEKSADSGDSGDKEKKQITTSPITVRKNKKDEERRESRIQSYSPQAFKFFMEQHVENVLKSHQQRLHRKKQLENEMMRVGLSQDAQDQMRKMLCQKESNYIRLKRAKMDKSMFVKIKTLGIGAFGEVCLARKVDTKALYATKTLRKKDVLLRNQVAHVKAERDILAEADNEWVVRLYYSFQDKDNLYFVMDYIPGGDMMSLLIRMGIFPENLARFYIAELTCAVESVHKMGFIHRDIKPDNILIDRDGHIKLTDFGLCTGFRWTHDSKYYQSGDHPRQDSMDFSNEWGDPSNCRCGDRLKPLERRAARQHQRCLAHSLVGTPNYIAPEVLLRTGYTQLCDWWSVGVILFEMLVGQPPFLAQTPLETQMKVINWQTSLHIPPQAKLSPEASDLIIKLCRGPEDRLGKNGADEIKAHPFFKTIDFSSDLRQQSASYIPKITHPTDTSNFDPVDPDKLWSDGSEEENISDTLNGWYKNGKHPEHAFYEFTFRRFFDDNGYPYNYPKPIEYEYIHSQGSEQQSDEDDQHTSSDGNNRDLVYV
Assay: co-IP; immunoprecipitation from liver macrophages of WT mice, with or without 0.2 mM PA and 0.4 mM OA for 24 h; immunoblot; precipitating antibody not stated

Sequences of proteins named here, by UniProt entry; tags and fusion partners are left off.
UniProt Q9QXD8: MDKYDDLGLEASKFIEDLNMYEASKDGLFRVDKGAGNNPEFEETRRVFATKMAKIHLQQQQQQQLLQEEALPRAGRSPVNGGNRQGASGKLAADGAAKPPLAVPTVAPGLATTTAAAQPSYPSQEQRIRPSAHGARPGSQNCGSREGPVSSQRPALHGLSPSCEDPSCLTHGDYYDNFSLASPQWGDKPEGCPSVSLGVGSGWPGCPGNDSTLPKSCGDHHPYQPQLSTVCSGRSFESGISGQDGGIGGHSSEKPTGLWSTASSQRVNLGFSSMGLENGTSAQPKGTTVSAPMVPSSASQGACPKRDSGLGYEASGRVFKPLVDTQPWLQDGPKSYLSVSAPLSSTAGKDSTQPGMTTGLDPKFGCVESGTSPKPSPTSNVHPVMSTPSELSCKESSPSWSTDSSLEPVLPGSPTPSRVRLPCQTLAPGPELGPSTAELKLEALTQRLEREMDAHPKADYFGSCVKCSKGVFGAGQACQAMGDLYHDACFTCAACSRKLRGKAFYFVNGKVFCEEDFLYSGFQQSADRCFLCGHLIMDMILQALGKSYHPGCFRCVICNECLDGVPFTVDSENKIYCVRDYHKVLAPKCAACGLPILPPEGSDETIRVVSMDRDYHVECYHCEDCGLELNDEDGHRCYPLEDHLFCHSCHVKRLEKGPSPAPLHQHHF

- binding: binds
Substance: LIM domain-containing protein 1 (LIMD1) (from UniProt Q9QXD8 1-668)

From article PMC11372114
